Measured values published in publication PMC11447256.
These are yes or no findings as the source states them, for the method shown. Binding seen in cells or lysates may run through a third protein. Some binding calls cover weakened binding; strength is not graded here.

What was measured:
[1] = molecular target: T1, apoptotic chromatin condensation inducer in the nucleus (human (endogenous in A549)) (UniProt Q9UKV3); assay: cross-linking; in situ XL-MS; A549 cells fixed with 4% formaldehyde (10 min, 25 °C), permeabilized with 0.1% Triton X-100, three sequential 1 mM PhoX treatments (30 min each, PBS pH 7.4, 25 °C); Fe-NTA enrichment, high-pH fractionation, LC-MS/MS, pLink 2, 5% FDR
T1 sequence: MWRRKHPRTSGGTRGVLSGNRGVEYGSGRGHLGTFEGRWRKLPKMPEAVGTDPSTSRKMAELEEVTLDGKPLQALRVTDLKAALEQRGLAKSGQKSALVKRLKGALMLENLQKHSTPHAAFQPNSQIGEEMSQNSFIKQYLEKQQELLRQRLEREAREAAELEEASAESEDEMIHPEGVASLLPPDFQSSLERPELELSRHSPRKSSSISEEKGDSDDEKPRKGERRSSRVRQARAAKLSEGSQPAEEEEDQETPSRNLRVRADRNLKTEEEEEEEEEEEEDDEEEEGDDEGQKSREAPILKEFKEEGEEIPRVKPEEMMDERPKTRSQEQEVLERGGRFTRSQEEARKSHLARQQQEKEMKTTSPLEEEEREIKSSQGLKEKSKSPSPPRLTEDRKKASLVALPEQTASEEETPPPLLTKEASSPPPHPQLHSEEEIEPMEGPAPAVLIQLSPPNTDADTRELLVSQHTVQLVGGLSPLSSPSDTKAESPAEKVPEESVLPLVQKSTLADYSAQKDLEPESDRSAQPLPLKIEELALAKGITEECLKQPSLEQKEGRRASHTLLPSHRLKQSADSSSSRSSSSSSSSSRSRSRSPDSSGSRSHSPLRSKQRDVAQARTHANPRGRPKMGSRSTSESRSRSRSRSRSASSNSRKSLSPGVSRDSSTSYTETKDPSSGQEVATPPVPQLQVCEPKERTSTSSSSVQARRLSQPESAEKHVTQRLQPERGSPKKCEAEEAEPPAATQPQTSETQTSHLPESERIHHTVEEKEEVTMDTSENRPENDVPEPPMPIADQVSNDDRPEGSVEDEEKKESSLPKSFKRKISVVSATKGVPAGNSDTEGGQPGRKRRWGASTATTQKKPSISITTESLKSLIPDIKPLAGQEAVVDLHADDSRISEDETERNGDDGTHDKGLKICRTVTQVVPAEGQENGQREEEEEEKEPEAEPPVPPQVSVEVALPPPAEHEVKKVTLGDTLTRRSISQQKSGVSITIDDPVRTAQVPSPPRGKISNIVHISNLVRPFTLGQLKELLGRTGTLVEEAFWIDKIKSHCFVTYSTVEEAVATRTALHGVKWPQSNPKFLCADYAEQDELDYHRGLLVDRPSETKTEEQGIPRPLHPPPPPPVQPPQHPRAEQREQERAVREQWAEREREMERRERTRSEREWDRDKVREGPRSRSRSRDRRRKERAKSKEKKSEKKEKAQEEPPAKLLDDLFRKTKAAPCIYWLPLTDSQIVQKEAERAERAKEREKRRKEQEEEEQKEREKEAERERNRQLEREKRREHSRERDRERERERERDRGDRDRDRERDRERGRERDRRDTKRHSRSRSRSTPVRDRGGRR

[2] = molecular target: T1, apoptotic chromatin condensation inducer in the nucleus (human (endogenous in A549)); assay: cross-linking; in situ XL-MS; A549 cells fixed with 4% formaldehyde (10 min, 25 °C), permeabilized with 0.1% Triton X-100, one 1 mM PhoX treatment (30 min, PBS pH 7.4, 25 °C); Fe-NTA enrichment, high-pH fractionation, LC-MS/MS, pLink 2, 5% FDR

B1: apoptosis inhibitor 5 (protein, UniProt Q9BZZ5 1-524)
chain: MPTVEELYRNYGILADATEQVGQHKDAYQVILDGVKGGTKEKRLAAQFIPKFFKHFPELADSAINAQLDLCEDEDVSIRRQAIKELPQFATGENLPRVADILTQLLQTDDSAEFNLVNNALLSIFKMDAKGTLGGLFSQILQGEDIVRERAIKFLSTKLKTLPDEVLTKEVEELILTESKKVLEDVTGEEFVLFMKILSGLKSLQTVSGRQQLVELVAEQADLEQTFNPSDPDCVDRLLQCTRQAVPLFSKNVHSTRFVTYFCEQVLPNLGTLTTPVEGLDIQLEVLKLLAEMSSFCGDMEKLETNLRKLFDKLLEYMPLPPEEAENGENAGNEEPKLQFSYVECLLYSFHQLGRKLPDFLTAKLNAEKLKDFKIRLQYFARGLQVYIRQLRLALQGKTGEALKTEENKIKVVALKITNNINVLIKDLFHIPPSYKSTVTLSWKPVQKVEIGQKRASEDTTSGSPPKKSSAGPKRDARQIYNPPSGKYSSNLGNFNYEQRGAFRGSRGGRGWGTRGNRSRGRLY
- binding [1]: binds
- binding [2]: binds
